The other results are listed elsewhere or left out. Construct or isoform of the protein are uncertain.

In this assay the target is T1, ELF2 (UniProt Q15723).
T1 sequence: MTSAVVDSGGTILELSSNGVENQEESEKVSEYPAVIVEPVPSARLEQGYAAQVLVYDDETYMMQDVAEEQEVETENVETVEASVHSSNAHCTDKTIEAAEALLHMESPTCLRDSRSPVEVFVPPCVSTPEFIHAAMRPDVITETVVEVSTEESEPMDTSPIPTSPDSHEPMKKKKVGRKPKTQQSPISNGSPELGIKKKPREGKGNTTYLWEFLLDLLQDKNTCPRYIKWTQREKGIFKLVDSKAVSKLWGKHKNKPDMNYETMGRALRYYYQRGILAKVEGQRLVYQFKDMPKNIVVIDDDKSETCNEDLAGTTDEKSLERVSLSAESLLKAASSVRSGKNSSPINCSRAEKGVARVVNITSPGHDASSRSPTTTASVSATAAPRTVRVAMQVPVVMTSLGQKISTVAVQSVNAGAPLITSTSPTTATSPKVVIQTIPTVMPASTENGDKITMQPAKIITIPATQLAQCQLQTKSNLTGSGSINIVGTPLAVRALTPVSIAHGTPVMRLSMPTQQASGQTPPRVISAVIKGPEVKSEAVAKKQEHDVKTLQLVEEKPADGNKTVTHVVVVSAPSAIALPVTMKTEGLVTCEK
Kind of assay: DAPPL (digital affinity profiling via proximity ligation, sequencing). The settings on record: 10 mM Tris-HCl pH 7.5, 50 mM NaCl, 1 mM DTT, 4% glycerol, room temperature, 30 min; GST-TFs on glutathione beads, 16-mer random dsDNA library, 0.1% …; high values mean tight binding; double strand, one strand shown; scale: fold enrichment (6-mer frequency, TF over GST control).
The sequence TGCTCA gave a binding signal of 1.26.
To AAGTTT belongs 1.5.
To GACCTA belongs 1.1.
The result for ATTGAC reads 1.19.
The sequence GCTTAG returned a binding signal of 1.04.
Take GGGCTT: the binding signal amounted to 1.25.
For CCCCCA, the binding signal turned out to be 1.15.
TCGCCT showed a binding signal of 1.21.
Sequence ATAACT displayed a binding signal of 1.26.
As to CGATTG, the binding signal amounted to 1.11.
The result for CTTGGA reads 1.13; that for CTCGTG, 0.992; that for AACAAT, 1.3.
To ATACCT belongs 1.04; to GCTAAT, 1.11.
The result for TCGCAC reads 0.994; that for AACGAA, 1.13.
CCCTAA had a binding signal of 1.16.
For the sequence CCCGTT, the binding signal came to 1.13.
The result for ATGATA reads 1.22; that for GAATAA, 1.14; that for ACCTGC, 1.39.
To GTATTA belongs 1.1.
The result for TATTAA reads 1.14; that for TGACTT, 1.58; that for ATCTGA, 1.04.
Turning to GCTTTC, the binding signal turned out to be 1.29.
The sequence CCCTCC displayed a binding signal of 1.37.
To AACGTT belongs 1.06.
To AAGCTC belongs 1.19; to TACTGG, 1.04.
To CCTCTC belongs 1.34; to TAATGT, 1.07; to TGTATC, 1.4.
Turning to ACGCCC, the binding signal stood at 1.08.
CCGTCC: the binding signal worked out at 1.3.
For the sequence CCGTAC, the binding signal is 1.37.
The result for TATTCT reads 1.37.
To GCGACT belongs 1.16.

The values above are taken from PMC7862700.
